{
  "source": "patent US11389415B2",
  "about": "“Methods of regulating cannabinoid receptor activity-related disorders and diseases” (The United States of America as represented by the …, priority 2012, dated 2022)",
  "tested_on": "HepG2 cells",
  "experiment": "[3H]-Thymidine incorporation assay in HepG2 cells",
  "assay_type": "cell-based, human",
  "details": "serum-free medium, 24 h, read-out: IC50/EC50 (μM): IC50 for inhibition of [3H]-thymidine incorporation",
  "description": "Maintenance and Treatment of Cell Lines. Human HepG2 hepatocarcinoma cells and human U87MG glioma cells (ATCC, Manassas, Va.) were maintained in EMEM medium supplemented with 1% L-glutamine, 1% sodium pyruvate, 1% penicillin/streptomycin, and 10% FBS (Hyclone, Logan, Utah). The human 1321N1 astrocytoma cells (European Collection of Cell Cultures, Sigma-Aldrich) were cultured in Dulbecco's modified Eagle's medium supplemented with 10% FBS and penicillin/streptomycin. All cell lines were cultured at 37° C. in 5% CO2, and the medium was replaced every 2-3 days.\nCells were seeded in 12-well plates at approximately 50,000 cells/well and incubated at 37° C. After 24 hours, the wells were rinsed with PBS and replaced with serum-free medium containing the appropriate concentration of the test compounds. After another 24-hour incubation at 37° C., 1 μCi of [^3H]-thymidine was added to each well and incubated at 37° C. for 16 hours. [^3H]-Thymidine incorporation into DNA was monitored after the cells were washed twice with PBS and then lysed in 600 μL of 0.1N NaOH for 30 minutes with shaking. The lysate was then mixed with 3 mL of liquid scintillation cocktail (Beckman Coulter, Inc., Brea, Calif.), and radioactivity was measured by liquid scintillation counting using Beckman Coulter LS6000IC Scintillation Counter. Data are shown as CPM incorporated compared to the control cells.",
  "note": "At least one read-out could not be matched to a standard name with certainty.",
  "data": [
    {"smiles": "COc1ccc(C[C@@H](C)NC[C@H](O)c2cc(O)cc(O)c2)c2ccccc12", "note": "[(R,R′)-MNF, (R,R′)-4′-methoxy-1-naphthylfenoterol]", "values": [
      {"measurement": "IC50", "result": "0.39 ± 0.09", "unit": "µM"}
    ]}
  ]
}
